Experimental data: PMC9549148, “Validation of the binding stoichiometry between HCN channels and their neuronal regulator TRIP8b by single molecule measurements” (Frontiers in Physiology, 2022)
These are yes or no findings as the source states them, for the method shown. In cells and extracts the contact can be indirect. Binding calls can cover weak binding; strength is not graded here. Blank lines part the entries; values can stand above or below the molecule they belong to.

Protein sequences, listed by entry. Tags and fused reporters are not part of them. Lines headed by an entry give the natural chain unless they say otherwise; changes in a name come on top.
UniProt Q8C437: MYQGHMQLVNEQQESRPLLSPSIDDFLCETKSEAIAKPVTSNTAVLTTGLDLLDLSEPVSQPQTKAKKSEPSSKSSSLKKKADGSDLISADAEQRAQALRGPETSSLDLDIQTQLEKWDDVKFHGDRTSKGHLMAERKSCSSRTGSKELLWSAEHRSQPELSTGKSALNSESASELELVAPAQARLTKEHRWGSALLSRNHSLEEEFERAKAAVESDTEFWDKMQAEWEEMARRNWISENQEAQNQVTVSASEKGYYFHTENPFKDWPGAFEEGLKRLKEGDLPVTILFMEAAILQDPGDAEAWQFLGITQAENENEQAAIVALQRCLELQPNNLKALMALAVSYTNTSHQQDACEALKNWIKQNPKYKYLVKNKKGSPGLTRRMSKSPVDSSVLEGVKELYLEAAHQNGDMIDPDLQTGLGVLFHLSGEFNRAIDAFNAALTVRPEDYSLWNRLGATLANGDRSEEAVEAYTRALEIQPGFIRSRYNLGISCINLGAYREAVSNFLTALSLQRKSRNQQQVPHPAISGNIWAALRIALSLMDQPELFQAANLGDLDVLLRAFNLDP

Key:
[1] = target: T1, rabbit HCN4 carrying an internal deletion (from residues 783 to 1064) (rabbit) (UniProt Q9TV66); experiment: pull-down + SEC; HCN4 and His-EGFP-TRIP8b co-expressed in HEK293-F; membranes solubilised with detergent; affinity purification on Ni2+-NTA by the polyhistidine tag of EGFP-TRIP8b, then Superose 6 increase 10/300 GL in 200 mM NaCl, 20 mM HEPES pH 7.0, 0.002% LMNG-CHS; pooled fractions on SDS-PAGE and immunoblot (anti-HCN4, anti-TRIP8b)
T1 sequence: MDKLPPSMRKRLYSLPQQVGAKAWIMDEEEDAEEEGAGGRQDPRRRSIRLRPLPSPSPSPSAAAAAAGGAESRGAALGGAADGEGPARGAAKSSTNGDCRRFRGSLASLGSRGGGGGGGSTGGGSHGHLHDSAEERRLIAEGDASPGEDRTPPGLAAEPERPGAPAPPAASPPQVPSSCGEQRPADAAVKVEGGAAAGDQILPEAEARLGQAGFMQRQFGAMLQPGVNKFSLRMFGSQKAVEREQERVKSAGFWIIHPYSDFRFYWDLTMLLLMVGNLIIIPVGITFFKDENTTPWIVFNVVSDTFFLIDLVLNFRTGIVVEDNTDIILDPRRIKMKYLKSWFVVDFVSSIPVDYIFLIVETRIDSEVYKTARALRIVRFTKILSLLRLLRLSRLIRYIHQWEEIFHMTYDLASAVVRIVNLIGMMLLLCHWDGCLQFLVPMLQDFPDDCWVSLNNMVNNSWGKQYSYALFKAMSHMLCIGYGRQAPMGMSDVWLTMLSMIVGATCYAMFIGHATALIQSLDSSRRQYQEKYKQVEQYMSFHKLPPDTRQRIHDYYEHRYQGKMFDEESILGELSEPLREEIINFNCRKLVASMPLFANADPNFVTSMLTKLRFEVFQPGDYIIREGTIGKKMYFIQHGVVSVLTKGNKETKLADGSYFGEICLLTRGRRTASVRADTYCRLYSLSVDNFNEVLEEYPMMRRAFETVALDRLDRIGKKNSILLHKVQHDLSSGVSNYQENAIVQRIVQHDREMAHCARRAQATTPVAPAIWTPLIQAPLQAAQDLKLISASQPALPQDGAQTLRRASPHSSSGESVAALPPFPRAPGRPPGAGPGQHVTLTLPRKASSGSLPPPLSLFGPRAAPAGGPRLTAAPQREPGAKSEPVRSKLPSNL

[2] = target: EGFP-tagged TRIP8b (1a), full-length mouse TRIP8b (splice variant 1a4) (mouse) (UniProt Q8C437); experiment: as above

binding [1]: binds
Molecule: N terminally degraded TRIP8b (mouse) (domain or fragment)

binding [2]: binds
B1: rabbit HCN4 carrying an internal deletion (from residues 783 to 1064) (natural protein, UniProt Q9TV66 1-1175, looked up)
chain: T1 sequence
notes: the extreme C-terminal SNL tripeptide is preserved; expected MW of the monomer 98.4 kDa; Cloned into the pCI vector; no tag is stated for HCN4; also called HCN4ΔC; modified HCN4 channels; source: HEK293-F, transiently co-transfected with TRIP8b; solubilised in detergent (LMNG-CHS), purified in complex with TRIP8b (Ni2+-NTA, Superose 6 SEC)
